The results in this text go back to publication PMC7819943, “Rice protein-binding microarrays: a tool to detect cis-acting elements near promoter regions in rice”.

Protein sequences, listed by entry. Tags and fused reporters are not part of them.
UniProt Q0JBA9, entry or part of it: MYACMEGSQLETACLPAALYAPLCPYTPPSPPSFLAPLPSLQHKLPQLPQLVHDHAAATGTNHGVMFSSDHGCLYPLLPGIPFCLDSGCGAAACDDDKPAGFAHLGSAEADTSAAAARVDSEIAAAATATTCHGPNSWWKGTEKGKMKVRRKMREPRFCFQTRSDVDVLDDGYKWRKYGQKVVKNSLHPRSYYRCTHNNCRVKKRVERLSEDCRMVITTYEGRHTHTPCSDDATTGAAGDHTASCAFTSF

Some of the results follow.

This assay addresses OsWRKY34 (Oryza sativa, UniProt Q0JBA9 1-250). In words: protein-binding microarray (RPBM); PBS, 2% BSA, 51.3 ng/ul salmon testes DNA, 50 uM zinc acetate, 200 nM TF, 25 C, 1 h; high values mean tight binding. Conditions: protein: recombinant; tags: N-terminal polyhistidine and DsRed monomer fusion (pET32a); label: CyDye5-dUTP incorporated in the synthesized complementary strand; 3' TTTTT single-stranded linker to array surface; dsDNA, one strand shown. Summed up:
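Per-feature fluorescence intensity (arbitrary units), read on an Axon 4000B scanner, is the binding signal. Transcription factors carrying an N-terminal polyhistidine tag and DsRed fusion were expressed in E. coli BL21-CodonPlus and purified on Ni–NTA. A custom Agilent array, made double-stranded by primer extension with Cy5-dUTP and blocked with 2% BSA, was incubated with 200 nM protein in PBS, 2% BSA, salmon testes DNA and 50 µM zinc acetate at 25 °C for 1 h and then washed.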
In the case of “GATGTTCATTTTCTCTGCAGGGTGTAGGTCTATTGTCGTCCGGAGTCACCTAGTGCAG”, the binding signal is 10500 fluorescence intensity (a.u.). The result for “CACCGCACCACTGTCTCGTCGACTCCGCTGCTCTACAACGCGGAGTCACCTAGTGCAG” reads 9690 fluorescence intensity (a.u.). The result for “CAGTTCCCTGCTATAACATATTCTTTGTTTTATGTGGCTACGGAGTCACCTAGTGCAG” reads 8150 fluorescence intensity (a.u.). In the case of “CGGCGGGGATCGAGCTAGGGTTTCTGCAGTTGTTTTTTATCGGAGTCACCTAGTGCAG” it was 11600 fluorescence intensity (a.u.).

Turning to “AAAACTTATGACTTTCATTTTCAATCTTGGCCACTTGTATCGGAGTCACCTAGTGCAG”, the binding signal was 11000 fluorescence intensity (a.u.). In the case of “GTCTATTTACCTCTCAGATTATAAACCGCACCCAAAATTTCGGAGTCACCTAGTGCAG” it was 8410 fluorescence intensity (a.u.); in that of “TTGGACGCTTAGGTGCTTGTTGCTTATTGGTGGGTGTAAACGGAGTCACCTAGTGCAG”, 9170 fluorescence intensity (a.u.). In the case of “CCGATCCAATCCGTCGCCGTGCCGCCTGCTATTGCTCCAACGGAGTCACCTAGTGCAG” it was 8600 fluorescence intensity (a.u.); in that of “TTATATTCTATGCTCTGGATCTACACATATCTGCTGTGTGCGGAGTCACCTAGTGCAG”, 8650 fluorescence intensity (a.u.).

As to “TTCAGTCAATTTATAGTTGGTTGTTGAGAGGATTTAGAATCGGAGTCACCTAGTGCAG”, the binding signal was 9160 fluorescence intensity (a.u.).

Regarding “AGGGTCTATTTTTATAAATCTTTTCGCCGATATAATATTTCGGAGTCACCTAGTGCAG”, the binding signal was 9150 fluorescence intensity (a.u.). The result for “GCAGGTCAATAGTATGTGTGATTTAGTTTGACCAGGGAGGCGGAGTCACCTAGTGCAG” reads 11800 fluorescence intensity (a.u.); that for “TTCGAACTTTTCTATTGCAATATTCTCCAGCTTAAGTTTCCGGAGTCACCTAGTGCAG”, 8430 fluorescence intensity (a.u.). In the case of “ACACCTTCCCCACCATCCTCCTGCCTTCCGTGCGCGGTCCCGGAGTCACCTAGTGCAG” it was 9080 fluorescence intensity (a.u.); in that of “CCCGCTATCCTGCCAAATCACTGATCTGCCCTCATGCCATCGGAGTCACCTAGTGCAG”, 14100 fluorescence intensity (a.u.). The result for “GGCACCGGCGGAGGGGCGCGGGAGGGGAGGCGGCGGCGAGCGGAGTCACCTAGTGCAG” reads 15600 fluorescence intensity (a.u.). For the sequence “AGTCATCACCATCTCTATAGTGCATCCGGAGAGATCGATCCGGAGTCACCTAGTGCAG”, the binding signal is 8740 fluorescence intensity (a.u.). In the case of “ATAATGGTTTGTTATCTTCTCTGAACTGGTTCGTTTCTAACGGAGTCACCTAGTGCAG” it was 8250 fluorescence intensity (a.u.); in that of “GCCGTATTTGTTTTTTTGGGATTTGGGGTTTGGATACTTGCGGAGTCACCTAGTGCAG”, 18700 fluorescence intensity (a.u.). The result for “GCTGAAAATTCACCGTGGCGAAAAATCCGGGATTTTTTTTCGGAGTCACCTAGTGCAG” reads 8810 fluorescence intensity (a.u.); that for “TGTACTTCCTCTGTTACATATTGCTGAGATTGCTCTTCCTCGGAGTCACCTAGTGCAG”, 8170 fluorescence intensity (a.u.); that for “AGATCTCCCCTCCGCCTCGTCTCGTCTCGTCTCGGTCTCTCGGAGTCACCTAGTGCAG”, 9300 fluorescence intensity (a.u.). Turning to “GATATCTGGTGGTTTTGGGATGTCAATTAAACTCGACACGCGGAGTCACCTAGTGCAG”, the binding signal is 8860 fluorescence intensity (a.u.). The result for “CGCCCATTCCAAAACCCTCCGCCGCCGCCGCCGCCGCCGCCGGAGTCACCTAGTGCAG” reads 8930 fluorescence intensity (a.u.); that for “TCCTGTGGTGCCCCATGTCGCTCGGGTACTTCCTCAGCACCGGAGTCACCTAGTGCAG”, 9050 fluorescence intensity (a.u.); that for “TCATCATGTATAATACTATTTGTTATTGTATAGCTAGCTTCGGAGTCACCTAGTGCAG”, 10500 fluorescence intensity (a.u.). The result for “GTTGACGGGGTTTGTGAGGTGTGGCGGTGACTTGGAAAGACGGAGTCACCTAGTGCAG” reads 10100 fluorescence intensity (a.u.); that for “TGTAACTGCTCACACTCTTTGCTCTAATCATATGGTTAATCGGAGTCACCTAGTGCAG”, 8650 fluorescence intensity (a.u.).

For “CCTCTCTCCTCTTTTTTTCCTCATCCGTGCGCGATACTGCCGGAGTCACCTAGTGCAG”, the binding signal was 8410 fluorescence intensity (a.u.). For the sequence “CCATTTTCACTCATGTTTCCACCCACCTATTTTACCCTAGCGGAGTCACCTAGTGCAG”, the binding signal is 12700 fluorescence intensity (a.u.).

Consider “GTTCATGGTCTCGCTGCCATCCTCTTCCTGCATGTCTTCTCGGAGTCACCTAGTGCAG”, for which the binding signal is 9310 fluorescence intensity (a.u.). In the case of “ATGCAACACAATGGCTCCTGCTCCTCGTCGTCTTCCTCGTCGGAGTCACCTAGTGCAG” it was 8490 fluorescence intensity (a.u.); in that of “CTTTGGGAGGGCGGCAGGCGATTAGATTTGTAAATTTTCACGGAGTCACCTAGTGCAG”, 8520 fluorescence intensity (a.u.). The result for “GATCTATTCTGAGTCTGCTGTGCTCCATTTCTCATTCAAACGGAGTCACCTAGTGCAG” reads 9940 fluorescence intensity (a.u.); that for “TTTTAGGTTTTTGCTTGTAACGTTTGACCACTCGTCTTATCGGAGTCACCTAGTGCAG”, 8510 fluorescence intensity (a.u.). In the case of “CTTTGTGTTGCCTTGTTGTTGGTGTCGCGCGCCCGCCATGCGGAGTCACCTAGTGCAG” it was 10100 fluorescence intensity (a.u.); in that of “TGGTGCTCGGGCCTGTTATTTAGTTGGACTTGGACGCCGGCGGAGTCACCTAGTGCAG”, 9580 fluorescence intensity (a.u.); in that of “TGTCAAAGCTGGAATGCTATTATTTTACCACAAATTGCAACGGAGTCACCTAGTGCAG”, 8980 fluorescence intensity (a.u.). For “CTCATTTTATTTCGTAGTTTTTACGTAGGCAGAGGGCCATCGGAGTCACCTAGTGCAG”, the binding signal was 8560 fluorescence intensity (a.u.). In the case of “ACTCCTCTTGCACTCCAGTAACTCGCTTCTGTTTTGACCCCGGAGTCACCTAGTGCAG” it was 8490 fluorescence intensity (a.u.); in that of “GGGCGGGTCAAGGCCGTCGCGATCACGCACCGCAACCTCACGGAGTCACCTAGTGCAG”, 8750 fluorescence intensity (a.u.). The result for “ATACTGAAAACCTGCTAGTTTGTTGCTCTATTCTACAGCTCGGAGTCACCTAGTGCAG” reads 8990 fluorescence intensity (a.u.); that for “ACTCCGCCCGCAACCTCCGCTCTCTGTCTCGCGGTGACCTCGGAGTCACCTAGTGCAG”, 9660 fluorescence intensity (a.u.).

Regarding “CTGAAGATGTAAGTGTGTTCAATCATGATTCCTTGTTTCTCGGAGTCACCTAGTGCAG”, the binding signal is 8750 fluorescence intensity (a.u.).

On to “CGTGAGGAATGGGATTTTTATTTTGCTGGTTACTGTTTGACGGAGTCACCTAGTGCAG”, for which the binding signal was 10000 fluorescence intensity (a.u.). The result for “ACTGGCCATTGCTCCTCTCCTCCCACTCTTCTTCTCCATCCGGAGTCACCTAGTGCAG” reads 8390 fluorescence intensity (a.u.).

With “AGCGGAGGGGAGGGGATCCTGGTGCGTCTTCTTTCTGATTCGGAGTCACCTAGTGCAG”, the binding signal was 11500 fluorescence intensity (a.u.).

As to “AGGCGATGCGAACCATGACTTTCGAACACACCCTTATTCTCGGAGTCACCTAGTGCAG”, the binding signal is 8100 fluorescence intensity (a.u.). Take “TCTGCCTTGAAGTGGTACCGTGGGTGGGAGGGTAGTTATGCGGAGTCACCTAGTGCAG”: the binding signal was 11500 fluorescence intensity (a.u.). The result for “CACCGCCGCAGCCCAAGCCCACCACCACCACCGCCGCCGCCGGAGTCACCTAGTGCAG” reads 9060 fluorescence intensity (a.u.); that for “GAATTTGTGCTCTGTGATGTGAATGTGGAATATTTTTGTGCGGAGTCACCTAGTGCAG”, 11000 fluorescence intensity (a.u.). The result for “ATATCAACCCCACACCCTTGTTTACGCTTTTCATAAGCTACGGAGTCACCTAGTGCAG” reads 8110 fluorescence intensity (a.u.); that for “TCTATCATCTCAAAGCTGATCGTTTTACAGTATATGATATCGGAGTCACCTAGTGCAG”, 8350 fluorescence intensity (a.u.); that for “CCGGATGGGGACTATGTTTGGAGGTGGGTGTTGGGAACCACGGAGTCACCTAGTGCAG”, 9200 fluorescence intensity (a.u.).
